From paper PMC6795895
Construct, isoform or probe ends are uncertain for at least one entry. Where cells or extracts were used, other partners may take part.

The chains behind the UniProt entries cited, without tags or fusion partners. Where a name states a change or a piece, a line headed by the entry shows the natural chain unless it says otherwise.
UniProt Q9WTL8: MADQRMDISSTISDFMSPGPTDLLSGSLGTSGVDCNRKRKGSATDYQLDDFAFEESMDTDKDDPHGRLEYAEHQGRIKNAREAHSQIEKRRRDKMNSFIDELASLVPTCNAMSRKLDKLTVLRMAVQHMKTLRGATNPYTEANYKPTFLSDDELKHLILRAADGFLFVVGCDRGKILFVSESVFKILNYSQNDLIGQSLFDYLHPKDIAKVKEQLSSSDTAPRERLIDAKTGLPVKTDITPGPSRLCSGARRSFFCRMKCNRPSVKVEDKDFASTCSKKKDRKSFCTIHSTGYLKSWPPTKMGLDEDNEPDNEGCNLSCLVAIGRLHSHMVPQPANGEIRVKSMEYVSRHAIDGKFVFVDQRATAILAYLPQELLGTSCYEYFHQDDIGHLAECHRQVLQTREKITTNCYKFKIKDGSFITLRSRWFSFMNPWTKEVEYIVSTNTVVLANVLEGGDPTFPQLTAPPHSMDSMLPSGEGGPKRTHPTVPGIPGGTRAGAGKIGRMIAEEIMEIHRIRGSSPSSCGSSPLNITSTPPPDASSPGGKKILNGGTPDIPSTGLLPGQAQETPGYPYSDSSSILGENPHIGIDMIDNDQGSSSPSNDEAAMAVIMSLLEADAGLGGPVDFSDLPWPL

Biological target: Bmal1 (UniProt Q9WTL8)
Assay: EMSA
Conditions: EMSA binding buffer (Beyotime kit, composition and pH not stated), 6 μg nuclear protein, 0.5 nmol biotin probe, 12.5 nmol unlabeled competitor; protein in an extract; label: biotin

| Sequence | binding result |
| --- | --- |
| AGGCTGCTGGACATGTGTGGAGAGGCCA (double strand) [Hnf4α-Ebox-3] | binds |
| TTCGGATGTTCCAGCTGCCTTTATCTCC (double strand) [Hnf4α-Ebox-1] | binds |
